Reference: paper PMC5720810
Results are given in words; binding and its absence hold for the method and conditions named. In cells and extracts the contact can be indirect. Some results given as binding are weak or reduced against the parent protein; the word gives no strength. Tags and fused reporters may be left off the sequences shown.

Assays:
[1] = molecular target: T1, TAP-tagged Spt4 (wild type) (S. cerevisiae (BY4741)) (UniProt P32914); assay: co-IP; TAP-tagged Spt4 precipitated on rabbit IgG agarose from yeast protein extracts (5 mg), 2-3 h at 4°C, buffer A with 150 mM NaCl washes; cells with or without 0.4 M NaCl for 10 min; Spt5-9myc detected with anti-myc (9E10), RNA Pol II with anti-Rpb1 (8WG16)
T1 sequence: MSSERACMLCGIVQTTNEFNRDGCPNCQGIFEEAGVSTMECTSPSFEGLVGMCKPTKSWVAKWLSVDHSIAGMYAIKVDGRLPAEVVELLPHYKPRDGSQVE

[2] = molecular target: T2, TAP-tagged Spt4^T42AS43A (non-phosphorylatable mutant) (S. cerevisiae (BY4741)) (UniProt P32914); assay: as above
T2 sequence: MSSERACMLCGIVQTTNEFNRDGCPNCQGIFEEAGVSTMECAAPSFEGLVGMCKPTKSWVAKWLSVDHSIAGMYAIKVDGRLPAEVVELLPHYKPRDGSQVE

B1: 9myc-tagged Spt5 (protein, UniProt P27692 1-1063)
chain: MSDNSDTNVSMQDHDQQFADPVVVPQSTDTKDENTSDKDTVDSGNVTTTESTERAESTSNIPPLDGEEKEAKSEPQQPEDNAETAATEQVSSSNGPATDDAQATLNTDSSEANEIVKKEEGSDERKRPREEDTKNSDGDTKDEGDNKDEDDDEDDDDDDDDEDDDDEAPTKRRRQERNRFLDIEAEVSDDEDEDEDEEDSELVREGFITHGDDEDDEASAPGARRDDRLHRQLDQDLNKTSEEDAQRLAKELRERYGRSSSKQYRAAAQDGYVPQRFLLPSVDTATIWGVRCRPGKEKELIRKLLKKKFNLDRAMGKKKLKILSIFQRDNYTGRIYIEAPKQSVIEKFCNGVPDIYISQKLLIPVQELPLLLKPNKSDDVALEEGSYVRIKRGIYKGDLAMVDQISENNLEVMLKIVPRLDYGKFDEIDPTTQQRKSRRPTFAHRAPPQLFNPTMALRLDQANLYKRDDRHFTYKNEDYIDGYLYKSFRIQHVETKNIQPTVEELARFGSKEGAVDLTSVSQSIKKAQAAKVTFQPGDRIEVLNGEQRGSKGIVTRTTKDIATIKLNGFTTPLEFPISTLRKIFEPGDHVTVINGEHQGDAGLVLMVEQGQVTFMSTQTSREVTITANNLSKSIDTTATSSEYALHDIVELSAKNVACIIQAGHDIFKVIDETGKVSTITKGSILSKINTARARVSSVDANGNEIKIGDTIVEKVGSRREGQVLYIQTQQIFVVSKKIVENAGVFVVNPSNVEAVASKDNMLSNKMDLSKMNPEIISKMGPPSSKTFQQPIQSRGGREVALGKTVRIRSAGYKGQLGIVKDVNGDKATVELHSKNKHITIDKHKLTYYNREGGEGITYDELVNRRGRVPQARMGPSYVSAPRNMATGGIAAGAAATSSGLSGGMTPGWSSFDGGKTPAVNAHGGSGGGGVSSWGGASTWGGQGNGGASAWGGAGGGASAWGGQGTGATSTWGGASAWGNKSSWGGASTWASGGESNGAMSTWGGTGDRSAYGGASTWGGNNNNKSTRDGGASAWGNQDDGNRSAWNNQGNKSNYGGNSTWGGH
binding [1]: binds
binding [2]: binds
